Data taken from publication doi:10.1101/115071.
No constants are given. Whether binding was seen depends on the method and setting. Some binding calls cover weakened binding; strength is not graded here. Sequences can lack the tags named with a protein.

By UniProt entry, the sequences of proteins in these tests, tags left out.
UniProt Q9FTA2: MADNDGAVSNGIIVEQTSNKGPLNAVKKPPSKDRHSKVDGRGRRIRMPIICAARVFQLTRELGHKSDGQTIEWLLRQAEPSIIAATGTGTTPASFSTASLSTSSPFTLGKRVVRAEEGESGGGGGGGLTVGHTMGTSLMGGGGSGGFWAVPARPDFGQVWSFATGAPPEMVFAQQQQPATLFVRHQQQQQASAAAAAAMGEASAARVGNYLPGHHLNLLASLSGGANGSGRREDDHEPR

T1: GAL4-BD-TOC1 (Arabidopsis thaliana) (UniProt Q9LKL2)
T1 sequence: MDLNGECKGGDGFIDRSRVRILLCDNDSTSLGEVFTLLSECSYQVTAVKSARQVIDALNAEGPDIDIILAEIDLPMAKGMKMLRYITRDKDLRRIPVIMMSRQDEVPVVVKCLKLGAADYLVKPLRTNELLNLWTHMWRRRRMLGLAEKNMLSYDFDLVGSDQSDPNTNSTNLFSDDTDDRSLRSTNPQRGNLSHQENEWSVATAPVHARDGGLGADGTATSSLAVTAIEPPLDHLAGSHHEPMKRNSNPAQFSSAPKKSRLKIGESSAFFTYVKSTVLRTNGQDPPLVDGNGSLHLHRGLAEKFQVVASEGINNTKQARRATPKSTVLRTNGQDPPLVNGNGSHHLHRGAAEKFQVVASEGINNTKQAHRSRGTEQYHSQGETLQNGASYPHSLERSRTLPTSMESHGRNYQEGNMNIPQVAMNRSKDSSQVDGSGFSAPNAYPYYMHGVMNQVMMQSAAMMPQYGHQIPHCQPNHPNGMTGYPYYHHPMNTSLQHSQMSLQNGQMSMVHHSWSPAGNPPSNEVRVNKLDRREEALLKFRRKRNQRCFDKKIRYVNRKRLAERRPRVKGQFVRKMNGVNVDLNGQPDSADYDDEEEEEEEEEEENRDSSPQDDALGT

B1: GAL4-AD-ZTL decoy (domain or fragment, UniProt Q94BT6 1-196; Q94BT6 246-609)
chain: MEWDSGSDLSADDASSLADDEEGGLFPGGGPIPYPVGNLLHTAPCGFVVTDAVEPDQPIIYVNTVFEMVTGYRAEEVLGGNCRFLQCRGPFAKRRHPLVDSMVVSEIRKCIDEGIEFQGELLNFRKDGSPLMNRLRLTPIYGDDDTITHIIGIQFFIETDIDLGPVLGSSTKEKSIDGIYSALAAGERNVSRGMCGWGSETTRVLETVPGAKRLGWGRLARELTTLEAAAWRKLSVGGSVEPSRCNFSACAVGNRVVLFGGEGVNMQPMNDTFVLDLNSDYPEWQHVKVSSPPPGRWGHTLTCVNGSNLVVFGGCGQQGLLNDVFVLNLDAKPPTWREISGLAPPLPRSWHSSCTLDGTKLIVSGGCADSGVLLSDTFLLDLSIEKPVWREIPAAWTPPSRLGHTLSVYGGRKILMFGGLAKSGPLKFRSSDVFTMDLSEEEPCWRCVTGSGMPGAGNPGGVAPPPRLDHVAVNLPGGRILIFGGSVAGLHSASQLYLLDPTEDKPTWRILNIPGRPPRFAWGHGTCVVGGTRAIVLGGQTGEEWMLSELHELSLASYLT
B2: GAL4-AD-ZTL LOV domain (domain or fragment, UniProt Q94BT6 1-196)
chain: MEWDSGSDLSADDASSLADDEEGGLFPGGGPIPYPVGNLLHTAPCGFVVTDAVEPDQPIIYVNTVFEMVTGYRAEEVLGGNCRFLQCRGPFAKRRHPLVDSMVVSEIRKCIDEGIEFQGELLNFRKDGSPLMNRLRLTPIYGDDDTITHIIGIQFFIETDIDLGPVLGSSTKEKSIDGIYSALAAGERNVSRGMCG

Assays:
[1] = biological target: GAL4-BD-CHE (Arabidopsis thaliana) (UniProt Q9FTA2); assay: two-hybrid
[2] = biological target: T1, GAL4-BD-TOC1 (Arabidopsis thaliana); assay: two-hybrid

| Binder | binding [1] | binding [2] |
| --- | --- | --- |
| B1 | binds | – |
| B2 | binds | binds |
